Measurements published in PubChem BioAssay AID2685 (National Center for Advancing Translational Sciences (NCATS), 2010).
The campaign covered roughly 320,000 compounds. About 2,100 (0.66%) were called active. The inconclusive results got no clear call from the source; some entries with a clear call stand among them for comparison. Calls come from the whole dose curve; as a rule, active = well fitted inhibition curve with a large enough effect in the signal ratio, with a control signal flat (not every such curve was filed as active); inconclusive = small, poorly fitted or top-dose-only effect, or effect the other way, or a change in a side signal; inactive = flat fitted curve, though single readings scatter; the % refers to the signal ratio. A potency beside an inconclusive call is a rough fit, not a confirmed value.

Test: qHTS Assay for Lipid Storage Modulators in Drosophila S3 Cells
Conditions: BODIPY lipid droplet fluorescence, 18-24 h, cells fed with added oleic acid; lipid storage change, negative = inhibition: at 46.1 µM (top of the series) unless noted
Method in brief: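 Laser-scanning cytometry quantifies lipid droplet accumulation (500–530 nm total intensity; droplet/cell object ratio) in oleic acid-fed (400 uM added) Drosophila S3 cells treated with a concentration series. 20 uM Triacsin C defined 100% inhibition.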
% is set by controls: 0 for no effect and ±100 for the full control effect; potency is the fitted concentration of half-maximal effect.

Compound | lipid storage change, negative = inhibition | Potency | outcome
O=C(/C=C/c1cccs1)N1CCC2(CC1)Oc1ccc(F)cc1C(=O)C21CC(c2ccccc2)=NO1 (centres undefined) | inconclusive: 35.1% | – | –
COC(=O)Nc1nc(Sc2ncc(C(F)(F)F)cc2Cl)n[nH]1 | inconclusive: 12.1% | – | –
Cc1ccc2nc(-c3ccccn3)cc(C(=O)NC(C)C(C)(C)C)c2c1 (centres undefined) | inconclusive: -83.9% | – | –
O=C(COc1ncnc2ccccc12)N1CCN(c2ccccc2)CC1 | inconclusive: 17% | – | –
Cc1ccc(C)c(NC(=O)CN(C)C(=O)c2oc3c(Cl)cccc3c2C)c1 | – | inconclusive: 2.31 µM [activator, partial curve] | –
C#CCSc1nccc(-c2nn(-c3ccc(C)cc3)ccc2=O)n1 | inconclusive: 194% | – | –
CCOc1ccc(C(=O)Nc2nccs2)cc1[N+](=O)[O-] | – | inconclusive: 1.03 µM [activator, full curve, poor fit] | –
COc1cccc(CCNC(=O)C2CCC(=O)N(C3CC3)C2)c1OC (centres undefined) | – | inconclusive: 0.58 µM [activator, single point] | –
Cc1ccc(NC(=O)CCc2c(C)[nH]c(=O)c(C#N)c2C)cc1 | – | – | inactive [at 46.1 µM]
O=C1Nc2ccc(S(=O)(=O)N3CCCC3)c3cccc1c23 | inconclusive: -2.12% | – | –
O=S(=O)(Nc1ccccn1)c1cccs1 | inconclusive: -26.5% | – | –
COc1cccc(CNc2ncnc3cc(Cl)ccc23)c1 | inconclusive: -22.9% | – | –
CCC(=O)Nc1ccc(C(=O)N/N=C/c2cc(Br)c(OC)cc2OC)cc1 | inconclusive: 18.8% | – | –
Cc1ccc(SCc2noc(-c3c(C)noc3C)n2)cc1 | inconclusive: -10.7% | – | –
Cc1onc(-c2ccccc2)c1C(=O)N1CCN(c2ccccn2)CC1 | inconclusive: 28.8% | – | –
O=C(NNC(=O)c1cc(-c2ccccc2Cl)nc2ccccc12)c1csc(N2CCOCC2)n1 | inconclusive: 27.1% | – | –
CCN(CC(=O)Nc1c(F)cccc1F)C(=O)CCc1c[nH]c2ccccc12 | inconclusive: -42.3% [at 0.00295 µM] | – | –
Cc1cc(C)cc(NC(=O)C2C3C=CC4(O3)C2C(=O)N(CCN2CCCCC2)C4C(=O)NC2CCCCC2)c1 (centres undefined) | – | inconclusive: 29.1 µM [falling, single point] | –
Clc1cccc(OCCCCCN2CCOCC2)c1 | – | inconclusive: 23.1 µM [falling, single point] | –
O=C(c1cccc(C(F)(F)F)c1)C1CCCN(C(=O)c2cc(C3CC3)[nH]n2)C1 (centres undefined) | inconclusive: -143% | – | –
Cc1ncoc1C(=O)Nc1cccc(Cl)c1C | – | – | inactive [at 46.1 µM]
CC(=O)c1cccc(NC(=O)COC(=O)c2ccc3c(c2)OCCO3)c1 | inconclusive: 19.9% | – | –
COC(=O)CSc1cc(C)nc(SC)n1 | – | inconclusive: 5.17 µM [falling, full curve, poor fit] | –
CCC1(c2ccccc2)NC(=S)N(c2ccc(C)c(C)c2)N1 (centres undefined) | inconclusive: 0.373% | – | –
CCn1c(=S)sc2c(=O)n(CC(=O)Nc3cccc(Cl)c3)c(C)nc21 | – | inconclusive: 18.4 µM [falling, single point] | –

Filtered by structure: those above with four or more nitrogen atoms.
Compound | lipid storage change, negative = inhibition | Potency | outcome
COC(=O)Nc1nc(Sc2ncc(C(F)(F)F)cc2Cl)n[nH]1 | inconclusive: 12.1% | – | –
O=C(COc1ncnc2ccccc12)N1CCN(c2ccccc2)CC1 | inconclusive: 17% | – | –
C#CCSc1nccc(-c2nn(-c3ccc(C)cc3)ccc2=O)n1 | inconclusive: 194% | – | –
Cc1onc(-c2ccccc2)c1C(=O)N1CCN(c2ccccn2)CC1 | inconclusive: 28.8% | – | –
O=C(NNC(=O)c1cc(-c2ccccc2Cl)nc2ccccc12)c1csc(N2CCOCC2)n1 | inconclusive: 27.1% | – | –
Cc1cc(C)cc(NC(=O)C2C3C=CC4(O3)C2C(=O)N(CCN2CCCCC2)C4C(=O)NC2CCCCC2)c1 (centres undefined) | – | inconclusive: 29.1 µM [falling, single point] | –
CCn1c(=S)sc2c(=O)n(CC(=O)Nc3cccc(Cl)c3)c(C)nc21 | – | inconclusive: 18.4 µM [falling, single point] | –

2 records drawn at random from the list so far:
Compound | lipid storage change, negative = inhibition | Potency | outcome
O=C(/C=C/c1cccs1)N1CCC2(CC1)Oc1ccc(F)cc1C(=O)C21CC(c2ccccc2)=NO1 (centres undefined) | inconclusive: 35.1% | – | –
COC(=O)Nc1nc(Sc2ncc(C(F)(F)F)cc2Cl)n[nH]1 | inconclusive: 12.1% | – | –

The list continues.

Compound | lipid storage change, negative = inhibition | Potency | outcome
CCOc1ccc(-c2nnn(CC(=O)c3ccc4c(c3)OCCO4)n2)cc1OCC | inconclusive: 19.9% | – | –
CCOc1cc(/C=C2/SC(=S)NC2=O)ccc1OC(=O)c1ccco1 | inconclusive: -3.12% | – | –
Cc1ccc2c(c1)N(CC(=O)N1CCc3ccccc3C1)C(=O)CO2 | inconclusive: 29.6% | – | –
CCOC(=O)C1CCCN(c2c(NCCCN(C)Cc3ccccc3)c(=O)c2=O)C1 (centres undefined) | inconclusive: 8.86% [cytotoxic] | – | –
Cc1cc(C)cc(N)c1 | inconclusive: 24.6% | – | –
O=C(OCc1nnc(-c2ccccc2)o1)c1ccc([N+](=O)[O-])s1 | – | inconclusive: 16.4 µM [falling, partial curve] | –
COc1c(C)cc(Br)cc1C(=O)Nc1cccc(NC(=O)c2ccco2)c1 | – | inconclusive: 1.46 µM [activator, partial curve, poor fit] | –
CCN1C(=O)C(NC(C)=O)c2cc(Br)ccc21 (centres undefined) | inconclusive: -22.4% | – | –
Cc1ccc(CNC(=O)CCC(=O)Nc2nnc(C)s2)cc1 | – | inconclusive: 29.1 µM [activator, single point] | –
COCCN(C(=O)CNC(=O)c1ccco1)C(C(=O)NC1CCCC1)c1ccccc1F (centres undefined) | – | inconclusive: 0.116 µM [falling, single point] | –
CCc1ncc(CN2CCCC(C(=O)Nc3cccc(-c4ccc(F)cc4)c3)C2)cn1 (centres undefined) | – | active: 20.6 µM | –
CCCC(CCC)=NNC(=O)CN(Cc1ccccc1)S(=O)(=O)c1ccccc1 | – | inconclusive: 18.4 µM [activator, single point] | –
CN(CC(=O)Nc1cc(Cl)ccc1C#N)C1CCS(=O)(=O)C1 (centres undefined) | – | inconclusive: 25.9 µM [activator, partial curve, poor fit] | –
CCCCOP(=O)(c1ccc(N(C)C)cc1)C(O)c1ccccc1F (centres undefined) | inconclusive: -39.2% | – | –
CC(C)CCc1c(O)nc(SCC(C)C)[nH]c1=O | – | inconclusive: 0.58 µM [falling, single point] | –
CCOC(=O)c1cc(-c2cccc([N+](=O)[O-])c2)n[nH]1 | inconclusive: -1.49% | – | –
O=C(CSc1nnc(-c2cc(-c3cccs3)nc3ccccc23)o1)NC1CCCCC1 | – | inconclusive: 5.17 µM [activator, single point] | –
Cc1nc2ccccc2n1CC(O)Cn1c2ccccc2c2ccccc21 (centres undefined) | – | inconclusive: 2.31 µM [activator, single point] | –
Cc1ccc(S(=O)(=O)CCc2nc3ccccc3[nH]2)cc1C | inconclusive: 3.83% | – | –
Cc1cccc(CSc2nnc(-c3ccco3)o2)c1 | inconclusive: -32.8% [at 0.00295 µM] | – | –
CC(C)Oc1ccc(C(=O)O)cc1 | inconclusive: -12% | – | –
CC1=CC(=O)OC1Cc1ccncc1 (centres undefined) | – | inconclusive: 29.1 µM [activator, single point] | –
O=C(NCc1ccncc1)C(=O)C1C(=O)Nc2ccccc21 (centres undefined) | inconclusive: -13% | – | –
O=C(Nc1c2c(nn1-c1ccc(F)cc1)CS(=O)C2)c1ccc2c(c1)OCO2 (centres undefined) | – | inconclusive: 0.731 µM [activator, full curve, poor fit] | –
